Results from PubChem BioAssay AID588590 (National Center for Advancing Translational Sciences (NCATS), 2011).
Hit rate of the full screen: of about 390,000 compounds, about 4,000 (1%) were called active. The shares of active, inactive and inconclusive entries below differ from those in the screen. Calls follow the shape of the dose curve; as a rule, active = well fitted inhibition curve with a large enough effect; inconclusive = small, poorly fitted or top-dose-only effect, or another doubt; inactive = no such curve, though single readings can be large or run the other way. Potencies beside an inconclusive call are fits to weak or partial responses and may not hold up.

Protein sequences, listed by entry. Tags and fused reporters are not part of them. Lines headed by an entry give the natural chain unless they say otherwise; changes in a name come on top.
UniProt Q9UNA4: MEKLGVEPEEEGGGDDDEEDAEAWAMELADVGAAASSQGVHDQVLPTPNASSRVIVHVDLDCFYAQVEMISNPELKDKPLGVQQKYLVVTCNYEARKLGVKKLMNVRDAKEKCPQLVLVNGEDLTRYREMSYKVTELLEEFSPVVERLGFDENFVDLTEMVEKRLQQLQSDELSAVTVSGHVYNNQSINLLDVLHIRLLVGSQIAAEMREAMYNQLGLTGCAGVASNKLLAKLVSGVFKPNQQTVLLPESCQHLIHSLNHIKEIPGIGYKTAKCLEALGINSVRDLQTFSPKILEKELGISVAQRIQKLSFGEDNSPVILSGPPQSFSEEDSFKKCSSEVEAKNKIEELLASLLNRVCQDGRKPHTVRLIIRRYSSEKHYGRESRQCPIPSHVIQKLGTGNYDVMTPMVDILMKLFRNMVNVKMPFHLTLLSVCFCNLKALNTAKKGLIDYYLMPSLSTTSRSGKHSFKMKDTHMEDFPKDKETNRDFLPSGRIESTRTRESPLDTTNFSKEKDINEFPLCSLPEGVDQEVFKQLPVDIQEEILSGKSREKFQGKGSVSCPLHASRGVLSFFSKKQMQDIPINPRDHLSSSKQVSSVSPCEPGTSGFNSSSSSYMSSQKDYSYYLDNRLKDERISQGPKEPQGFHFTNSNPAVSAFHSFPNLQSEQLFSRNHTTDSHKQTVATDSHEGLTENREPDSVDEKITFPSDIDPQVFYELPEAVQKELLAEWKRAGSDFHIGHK

biological target: DNA polymerase iota (Homo sapiens) (UniProt Q9UNA4); assay: qHTS for Inhibitors of Polymerase Iota; settings: Pol iota fluorescent replication assay, 10 min; series mostly up to 115 µM
In short: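 Fluorescent replication assay read twice, at 0 min and 10 min after adding 50 nM (final) substrate. Enzyme (10 nM) and compounds were first incubated 15 min at room temperature; enzyme-free buffer wells were negative controls.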
Potency is read from the fitted curve at half-maximal effect.

Row | SMILES | Potency
1 | CCSc1nc2sc3c(c2c(=O)n1-c1ccc(C)c(Cl)c1)CCN(C(C)=O)C3 | inconclusive: 50.1 µM [inhibitor, partial curve, poor fit]
2 | N#Cc1c(-c2ccccc2)nc(SCc2nc(N)nc(N3CCCCC3)n2)[nH]c1=O | inconclusive: 31.6 µM [inhibitor, single point]
3 | CS(=O)(=O)N1Cc2ccccc2CC1C(=O)Nc1ccccc1C(N)=O (configuration not stated) | inconclusive: 39.8 µM [inhibitor, single point]
4 | O=C1CC(CC(=O)N/N=C/c2ccccc2[N+](=O)[O-])=NN1 | inconclusive: 5.01 µM [inhibitor, full curve, poor fit]
5 | COc1ccc(/C=C/C(=O)Nc2ccc3nc4n(c(=O)c3c2)CCCC4)cc1 | inconclusive: 56.2 µM [inhibitor, partial curve, poor fit]
6 | CC1CCC(C(C)C)C(OCC(O)CN2CCN(Cc3ccccc3)CC2)C1 (configuration not stated) | inconclusive: 70.8 µM [inhibitor, partial curve, poor fit]
7 | O=[N+]([O-])c1ccc(Sc2cc[n+]([O-])c3ccccc23)c([N+](=O)[O-])c1 | inconclusive: 20 µM [inhibitor, partial curve, poor fit]
8 | CCc1ccc(C(=O)/C=C/c2ccc([N+](=O)[O-])o2)cc1 | inconclusive: 17.8 µM [inhibitor, partial curve, poor fit]
9 | O=C1C=CC(=O)N1Cc1ccncc1 | inactive
10 | Cc1cccc(NNC(=O)C2CCC2)c1 | inconclusive: 44.7 µM [inhibitor, partial curve]
11 | Cc1cccc(NC(=O)c2ccc(Cn3nc(N4CCN(c5ccccc5)CC4)ccc3=O)o2)c1C | inconclusive: 56.2 µM [inhibitor, partial curve, poor fit]
12 | COc1ccc(N2CCN(/C(=N\S(=O)(=O)c3ccccc3)Nc3nc(C)cc(C)n3)CC2)cc1 | inconclusive: 100 µM [inhibitor, partial curve, poor fit]
13 | C=C1CCN(C(Cc2ccccc2)C(=O)NCc2ccccc2)S(=O)(=O)c2ccccc21 (configuration not stated) | inactive
14 | COCC(=O)NC(C)c1nc2ccccc2[nH]1 (configuration not stated) | inconclusive: 28.2 µM [inhibitor, single point]
15 | CCCCOC(=O)c1cc(-c2ccc(/C=N/n3cnnc3)o2)ccc1Cl | inconclusive: 17.8 µM [inhibitor, partial curve, poor fit]
16 | O=C(NCCc1ccc(Cl)cc1)c1cc2c(s1)-c1ccccc1OC2 | active: 89.1 µM
17 | CCC1(c2ccccc2)NC(=O)N(CC(=O)Nc2cc(S(=O)(=O)N3CCCCCC3)ccc2OC)C1=O (configuration not stated) | inactive
18 | O=C(NCCc1csc(-c2ccccc2)n1)c1ccco1 | inconclusive: 2.82 µM [inhibitor, full curve, poor fit]
19 | O=C(CI)Nc1cccc2cccnc12 | inconclusive: 56.2 µM [inhibitor, partial curve, poor fit]
20 | COc1ccc(-c2cc(C(F)(F)F)nc(SCC(=O)N(C)Cc3ccccc3)n2)cc1 | inactive
21 | N#CC1=C(N)N2C(=C(C#N)C1c1ccc(Br)cc1)Nc1ccccc12 (configuration not stated) | inconclusive: 22.4 µM [inhibitor, full curve, poor fit]

A section from the list above, as a working copy:
Row | SMILES | Potency
20 | COc1ccc(-c2cc(C(F)(F)F)nc(SCC(=O)N(C)Cc3ccccc3)n2)cc1 | inactive
21 | N#CC1=C(N)N2C(=C(C#N)C1c1ccc(Br)cc1)Nc1ccccc12 (configuration not stated) | inconclusive: 22.4 µM [inhibitor, full curve, poor fit]

(cont.)

Row | SMILES | Potency
22 | COc1ccc(CCNC(=O)c2ccc3c(c2)CCN3S(=O)(=O)c2ccc(C)cc2)cc1OC | inactive
23 | CCC1CCCCN1C(=O)Cn1c(=O)n(-c2ccc(Cl)c(Cl)c2)c(=O)c2c(C)c(C(=O)N(C)C)sc21 (configuration not stated) | inactive
24 | CCOC(=O)C1(Cc2cccc(Cl)c2)CCCN(C(=O)c2cc(C)n(C)n2)C1 (configuration not stated) | inconclusive: 89.1 µM [inhibitor, single point]
25 | CCN1CCN(S(=O)(=O)c2cc3c(cc2Cl)NC(=O)CO3)CC1 | inconclusive: 79.4 µM [inhibitor, single point]
26 | CCCCCCCNC(=O)C1(CC2CC(c3ccccc3)=NO2)CCN(C(=O)OC(C)(C)C)CC1 (configuration not stated) | inconclusive: 39.8 µM [inhibitor, single point]
27 | CCc1nnc(NC(=O)CSc2nc3ccccc3s2)s1 | inconclusive: 20 µM [inhibitor, full curve, poor fit]
28 | CC(=O)Nc1ccc(S(=O)(=O)Nc2nc3ccccc3nc2Sc2nncn2C)cc1 | inconclusive: 22.4 µM [inhibitor, full curve, poor fit]
29 | O=C(COC(=O)Cc1ccsc1)NCc1ccc(Cl)cc1 | inconclusive: 44.7 µM [inhibitor, partial curve, poor fit]
30 | Cc1ccc(-n2c(-c3ccccc3)n[nH]c2=S)cc1 | inconclusive: 39.8 µM [inhibitor, single point]
31 | N#CC1=C(N)C(C#N)(C#N)C(c2cccnc2)C2CC(c3ccccc3)CC=C12 (configuration not stated) | inconclusive: 31.6 µM [inhibitor, partial curve]
32 | C=CCn1c(SCC(=O)Nc2nnc(C)s2)nnc1C1CC1 | inconclusive: 79.4 µM [inhibitor, partial curve]
33 | COc1cc(C(=O)Nc2nc3ccc4nc(C)sc4c3s2)cc(OC)c1OC | inconclusive: 100 µM [inhibitor, single point]
34 | Cc1ccc(N(CC(=O)N2CCN(c3cccc(C)c3C)CC2)S(=O)(=O)c2c(C)nn(C)c2C)cc1 | inconclusive: 25.1 µM [inhibitor, single point]
35 | CCOc1nc(C)ccc1-c1noc(-c2ccncc2)n1 | inconclusive: 20 µM [inhibitor, single point]
36 | O=C(Cn1c(NCCCO)nc2ccccc21)c1ccc(Br)cc1 | inconclusive: 100 µM [inhibitor, single point]
37 | CO/N=C/C(=N\Nc1cc(OC)cc(OC)c1)C(=O)c1ccccc1 | inconclusive: 100 µM [inhibitor, single point]
38 | Cc1c(Cl)cccc1NC(=S)N1CCN(Cc2ccc3c(c2)OCO3)CC1 | inconclusive: 89.1 µM [inhibitor, single point]
39 | CN(C)c1ccc(C(=O)NCc2ccc3c(c2)CCN3C(=O)c2ccc(Cl)cc2)cc1 | inconclusive: 100 µM [inhibitor, partial curve, poor fit]
40 | CSc1oc(-c2ccco2)nc1S(=O)(=O)c1ccccc1 | inconclusive: 70.8 µM [inhibitor, single point]
41 | Cc1nnc(SCc2ccc(CC(=O)O)cc2)o1 | inconclusive: 39.8 µM [inhibitor, single point]
42 | COc1ccc(Cl)cc1NC(=O)CCn1nc(C)cc1C | inconclusive: 89.1 µM [inhibitor, single point]

Row | SMILES | Potency
43 | O=C1Nc2ccccc2/C1=N\N=C\c1ccc(O)c(O)c1 | active: 2.24 µM
44 | CCc1cccc(C)c1NC(=O)c1cc(S(=O)(=O)N2CCN(c3ccccc3)CC2)ccc1F | inconclusive: 89.1 µM [inhibitor, single point]
45 | CCOc1ccc(C(=O)NC(C(=O)N2CCC2)C(C)C)cc1 (configuration not stated) | inactive
46 | CN1CCN(C(=O)c2ccc3ccccc3c2)CC1 | inactive
47 | Cc1cc(NC(=O)C(C)SCC(=O)N(C)Cc2c(F)cccc2Cl)no1 (configuration not stated) | inconclusive: 100 µM [inhibitor, single point]
48 | CCn1c(O)c(C=Nc2ccccc2)n(-c2ccccc2)c1=S | inconclusive: 35.5 µM [inhibitor, single point]
49 | N#Cc1cc2c([nH]c1=O)CCCC2 | inactive
50 | O=C(CN1C(=O)C(=O)N(Cc2ccco2)C1=O)Nc1ccc(F)c(F)c1F | inconclusive: 89.1 µM [inhibitor, single point]
51 | COc1ccc(CCN2C(=S)N(C)C(=O)C2CC(=O)Nc2ccc(F)cc2)cc1 (configuration not stated) | inconclusive: 56.2 µM [inhibitor, partial curve, poor fit]
52 | COc1ccccc1N1CCN(CCOc2c(OC)cccc2OC)CC1 | inconclusive: 12.6 µM [inhibitor, partial curve, poor fit]
53 | Cc1ccc2c(c1)CCCN2C(=O)c1ccoc1C | inconclusive: 39.8 µM [inhibitor, partial curve, poor fit]
54 | NS(=O)(=O)c1ccc(CNC(=O)CNC(=O)c2ccc(F)cc2)cc1 | inconclusive: 3.16 µM [inhibitor, full curve, poor fit]
55 | CC(C)n1c(=O)c2oc3ccccc3c2n(CC(=O)Nc2ccccc2Cl)c1=O | inactive
56 | N#CC1=C(SCC(=O)c2ccc(Br)cc2)NC2=C(C(=O)CCC2)C1c1ccco1 (configuration not stated) | inconclusive: 8.91 µM [inhibitor, partial curve]
57 | CCc1nnc(NC(=O)c2nc3nccc(C)n3n2)s1 | inconclusive: 31.6 µM [inhibitor, partial curve, poor fit]
58 | O=C1C[C@@H](c2ccc(O[C@@H]3O[C@H](CO)[C@@H](O)[C@H](O)[C@H]3O)cc2)Oc2cc(O)ccc21 | inconclusive: 39.8 µM [inhibitor, single point]
59 | O=C(COC(=O)c1ccc(Br)cc1)NCCN1C(=O)CSC1=O | inconclusive: 79.4 µM [inhibitor, partial curve, poor fit]
60 | O=C(NNC(=O)c1cc2ccccc2cc1O)Nc1ccc(F)cc1F | inconclusive: 25.1 µM [inhibitor, full curve, poor fit]
61 | O=C(O)CCCC(=O)Nc1ccc(C(=O)N2CCCCC2)c(Cl)c1 | inconclusive: 56.2 µM [inhibitor, partial curve, poor fit]
62 | C/C(=N/NC(=O)c1cc(-c2cccc([N+](=O)[O-])c2)n[nH]1)c1ccc(Cl)cc1 | inconclusive: 89.1 µM [inhibitor, single point]
